Measurements from PMC9508553.
Results are given in words; binding and its absence hold for the method and conditions named. In cells and extracts the contact can be indirect. Some results given as binding are weak or reduced against the parent protein; the word gives no strength.

Protein sequences, listed by entry. Tags and fused reporters are not part of them. Lines headed by an entry give the natural chain unless they say otherwise; changes in a name come on top.
UniProt P10961: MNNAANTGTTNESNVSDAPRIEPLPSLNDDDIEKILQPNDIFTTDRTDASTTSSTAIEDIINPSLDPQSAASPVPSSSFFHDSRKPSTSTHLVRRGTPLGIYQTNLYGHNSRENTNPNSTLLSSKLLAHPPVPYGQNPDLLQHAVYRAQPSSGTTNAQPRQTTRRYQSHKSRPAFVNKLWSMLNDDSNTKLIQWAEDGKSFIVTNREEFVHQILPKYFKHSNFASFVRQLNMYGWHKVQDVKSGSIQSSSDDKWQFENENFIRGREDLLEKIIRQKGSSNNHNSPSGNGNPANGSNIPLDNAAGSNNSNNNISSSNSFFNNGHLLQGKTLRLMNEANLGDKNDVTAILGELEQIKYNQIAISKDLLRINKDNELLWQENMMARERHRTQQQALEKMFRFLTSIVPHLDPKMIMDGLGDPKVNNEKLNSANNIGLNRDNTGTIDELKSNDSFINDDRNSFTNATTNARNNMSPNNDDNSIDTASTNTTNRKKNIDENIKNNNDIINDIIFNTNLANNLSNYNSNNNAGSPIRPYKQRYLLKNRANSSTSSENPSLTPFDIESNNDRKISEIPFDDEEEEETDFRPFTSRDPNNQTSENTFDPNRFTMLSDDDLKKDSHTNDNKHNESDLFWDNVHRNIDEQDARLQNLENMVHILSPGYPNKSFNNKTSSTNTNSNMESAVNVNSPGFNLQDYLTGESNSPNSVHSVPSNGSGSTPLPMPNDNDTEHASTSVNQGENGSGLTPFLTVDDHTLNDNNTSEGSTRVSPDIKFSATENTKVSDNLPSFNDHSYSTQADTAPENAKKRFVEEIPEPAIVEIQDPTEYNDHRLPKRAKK
UniProt P10591: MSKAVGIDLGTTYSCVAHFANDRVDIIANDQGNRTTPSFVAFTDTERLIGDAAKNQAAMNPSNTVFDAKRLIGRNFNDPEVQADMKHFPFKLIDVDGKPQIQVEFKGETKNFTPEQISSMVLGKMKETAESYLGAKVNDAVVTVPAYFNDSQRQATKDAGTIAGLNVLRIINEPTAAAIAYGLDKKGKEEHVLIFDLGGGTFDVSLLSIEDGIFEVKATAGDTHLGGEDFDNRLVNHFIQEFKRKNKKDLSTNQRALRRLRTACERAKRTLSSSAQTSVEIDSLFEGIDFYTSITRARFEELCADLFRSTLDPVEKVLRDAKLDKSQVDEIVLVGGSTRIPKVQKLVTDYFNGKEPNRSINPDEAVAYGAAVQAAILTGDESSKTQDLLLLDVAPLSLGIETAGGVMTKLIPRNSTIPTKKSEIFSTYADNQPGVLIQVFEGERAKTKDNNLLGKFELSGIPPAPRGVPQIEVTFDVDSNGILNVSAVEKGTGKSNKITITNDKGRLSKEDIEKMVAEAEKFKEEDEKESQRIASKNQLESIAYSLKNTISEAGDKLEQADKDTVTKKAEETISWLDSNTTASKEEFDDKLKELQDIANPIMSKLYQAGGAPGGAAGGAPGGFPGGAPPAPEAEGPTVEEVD

Target: Hsf1-GFP-FLAG (S. cerevisiae) (UniProt P10961)
Experiment: co-IP; total yeast lysate on anti-FLAG M2 affinity gel, TEGN buffer (20 mM Tris-HCl pH 7.9, 0.5 mM EDTA, 10% glycerol, 50 mM NaCl), 2 h at 4 °C, eight washes, elution with FLAG peptide; immunoblot for Ssa1

| binding | Substance |
| --- | --- |
| no binding | Ssa1-2CD (C264D, C303D), expressed in yeast (from UniProt P10591 1-642) |
| binds | Ssa1-2CS (C264S, C303S), expressed in yeast (from UniProt P10591 1-642) |
| binds | Ssa1 (WT), expressed in yeast (from UniProt P10591 1-642) |
